These are yes or no findings as the source states them, for the method shown. In cells and extracts the contact can be indirect. Here binding means that the protein was enriched with, or labelled near, the bait; the list need not be complete.

Sequences of proteins named here, by UniProt entry; tags and fusion partners are left off.
UniProt Q76MZ3: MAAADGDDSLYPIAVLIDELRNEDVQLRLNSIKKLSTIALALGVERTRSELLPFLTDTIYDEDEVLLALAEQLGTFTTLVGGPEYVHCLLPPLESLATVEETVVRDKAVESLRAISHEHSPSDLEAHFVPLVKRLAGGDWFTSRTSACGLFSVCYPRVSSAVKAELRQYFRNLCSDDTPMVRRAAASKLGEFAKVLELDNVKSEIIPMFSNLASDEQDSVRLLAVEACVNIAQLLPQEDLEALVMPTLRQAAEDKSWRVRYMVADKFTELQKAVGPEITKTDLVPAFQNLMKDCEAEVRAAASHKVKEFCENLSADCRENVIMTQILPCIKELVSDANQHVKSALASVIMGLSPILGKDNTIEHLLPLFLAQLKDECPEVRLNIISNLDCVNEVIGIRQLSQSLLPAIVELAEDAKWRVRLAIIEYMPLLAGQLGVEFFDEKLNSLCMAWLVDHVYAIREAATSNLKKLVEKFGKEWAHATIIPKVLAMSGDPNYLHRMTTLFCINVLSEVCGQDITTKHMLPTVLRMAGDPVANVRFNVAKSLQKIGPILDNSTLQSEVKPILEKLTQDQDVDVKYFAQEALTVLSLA

The target of this assay is T1, RalA^G23V ectopically expressed in liver (UniProt P11233).
T1 sequence: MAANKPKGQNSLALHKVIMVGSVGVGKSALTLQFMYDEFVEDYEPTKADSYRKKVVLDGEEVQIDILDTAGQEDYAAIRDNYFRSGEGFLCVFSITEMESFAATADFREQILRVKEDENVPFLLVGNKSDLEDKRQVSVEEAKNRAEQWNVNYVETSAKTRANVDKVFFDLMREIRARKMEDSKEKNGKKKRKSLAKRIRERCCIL
As to the kind of experiment: affinity purification with mass spectrometry; WT, G23V or S28N forms of RalA ectopically expressed in liver; proteomics search for interacting proteins.

Regarding “protein phosphatase 2A subunit Aα (PP2Aa), from liver (from UniProt Q76MZ3 1-589)”, the binding entry is reported as “binds”.

These data come from article PMC10896723.
